Experimental data: PubChem BioAssay AID504744 (Drosophila RNAi Screening Center, 2011)

Assay: 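Uncover factors, including feedback loops, that control dAkt activation in fly cells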 (primary screen)
Cell system: Drosophila Kc167 cells
Reagents: long dsRNA against Drosophila genes, 250 ng dsRNA per well of a 384-well plate
Duration: 3 days of knock-down, then overnight serum-free starvation before stimulation
Challenge: bovine insulin at 387 nM for 10 minutes after 12 h without serum
Measured: 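In-cell antibody fluorescence for phospho-dAkt in each well over DNA-dye signal, with log2 residuals expressed as z-scores adjusted for cell count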
Hit rule: 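Under insulin, a gene counts as a hit if the average z-score of two replicates lies above 2.5 or below -2.5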
In all, the deposit lists about 23,000 reagents; this is an unselected part of those with a known target gene and a result. Over the whole deposit, 98 (0.43%) got an active call. 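Only hit calls are given; the phospho-dAkt signals, z-scores and hit direction were not deposited.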 Names joined by + are all predicted targets of the reagent. Reagent sequences are not shown.

Gene | DRSC id | activity call
Lgr1 | DRSC16675 | inactive
CG33169 | DRSC11853 | inactive
GABA-B-R2 | DRSC14134 | inactive
asRNA:CR42743 + CG34162 | DRSC01190 | inactive
slam | DRSC03240 | inactive
Grx3 | DRSC02966 | inactive
COX7A | DRSC16514 | inactive
CG9346 | DRSC04542 | inactive
hfw | DRSC18506 | inactive
Octalpha2R | DRSC13319 | inactive
Octalpha2R | DRSC15314 | inactive
CG33477 | DRSC22934 | inactive
CG10417 | DRSC04846 | inactive
CG17121 | DRSC15176 | inactive
CG13001 | DRSC19520 | inactive
CG13001 | DRSC22443 | inactive
CG7289 | DRSC00697 | inactive
MTF-1 | DRSC08983 | inactive
MTF-1 | DRSC11217 | inactive
MTF-1 | DRSC21341 | inactive
mid | DRSC02977 | inactive
mid | DRSC21493 | inactive
Him | DRSC19638 | inactive
CG12912 | DRSC06227 | inactive
CG30349 | DRSC06421 | inactive
CG30349 | DRSC06839 | inactive
CG8460 | DRSC03090 | inactive
CG5681 | DRSC02876 | inactive
Syx4 | DRSC18586 | inactive
CG5104 | DRSC11765 | inactive
CG34444 | DRSC06435 | inactive
Nrg | DRSC17573 | inactive
Nrg | DRSC18688 | inactive
OSCP1 | DRSC06304 | inactive
Droj2 | DRSC16450 | inactive
Pkn | DRSC06809 | inactive
Pkn | DRSC06810 | inactive
form3 | DRSC10195 | inactive
form3 | DRSC10297 | inactive
form3 | DRSC11024 | inactive
CG17327 | DRSC15225 | inactive
CG13403 | DRSC19535 | inactive
Veneno | DRSC16537 | inactive
Ir21a | DRSC00528 | inactive
CG30458 | DRSC06660 | inactive
Toll-4 | DRSC03458 | inactive
sPLA2 | DRSC06041 | inactive
beat-Vb | DRSC12940 | inactive
beat-Vb | DRSC14844 | inactive
beat-Vb | DRSC14845 | inactive
CG30178 | DRSC21911 | inactive
CG9822 | DRSC04568 | inactive
CycD | DRSC20233 | inactive
Gad1 | DRSC08661 | inactive
RpS12 | DRSC11270 | inactive
CG34006 (retired record) | DRSC13817 | inactive
Spase25 | DRSC19776 | inactive
Sry-alpha | DRSC16867 | inactive
ND4 (retired record) | DRSC21269 | inactive
CG14718 | DRSC14941 | inactive
CG6023 | DRSC19970 | inactive

22 entries from above in another layout:
Gene,DRSC id,activity call
Droj2,DRSC16450,inactive
Pkn,DRSC06809,inactive
Pkn,DRSC06810,inactive
form3,DRSC10195,inactive
form3,DRSC10297,inactive
form3,DRSC11024,inactive
CG17327,DRSC15225,inactive
CG13403,DRSC19535,inactive
Veneno,DRSC16537,inactive
Ir21a,DRSC00528,inactive
CG30458,DRSC06660,inactive
Toll-4,DRSC03458,inactive
sPLA2,DRSC06041,inactive
beat-Vb,DRSC12940,inactive
beat-Vb,DRSC14844,inactive
beat-Vb,DRSC14845,inactive
CG30178,DRSC21911,inactive
CG9822,DRSC04568,inactive
CycD,DRSC20233,inactive
Gad1,DRSC08661,inactive
RpS12,DRSC11270,inactive
CG34006 (retired record),DRSC13817,inactive

The list goes on.
Gene | DRSC id | activity call
Hexo1 | DRSC08663 | inactive
Ser7 | DRSC18201 | inactive
Rpp20 + CG33932 | DRSC19467 | inactive
Smyd4-3 | DRSC07041 | inactive
Gk1 | DRSC08533 | inactive
Gk1 | DRSC08534 | inactive
SH3PX1 | DRSC11139 | inactive
AhcyL2 | DRSC14107 | inactive
CG13016 | DRSC06271 | inactive
myd | DRSC14762 | inactive
myd | DRSC15512 | inactive
Ubr3 | DRSC17987 | inactive
Ubr3 | DRSC17997 | inactive
CG9609 | DRSC20199 | inactive
Pits | DRSC19385 | inactive
Pits | DRSC19812 | inactive
Oga | DRSC15901 | inactive
Rab40 | DRSC19820 | inactive
CG31533 | DRSC13018 | inactive
Sclp | DRSC19851 | inactive
CG7194 | DRSC10784 | inactive
Oat | DRSC11043 | inactive
CG9284 (retired record) | DRSC03899 | inactive
CG9284 (retired record) | DRSC04536 | inactive
CG11454 | DRSC00310 | inactive
COX6CL | DRSC00895 | inactive
Lcp65Ae | DRSC11212 | inactive
CG32109 | DRSC09816 | inactive
mus302 | DRSC09905 | inactive
CG12391 | DRSC06147 | inactive
al | DRSC00799 | inactive
Sfxn1-3 | DRSC12183 | inactive
CG7881 | DRSC04898 | inactive
CG14227 | DRSC19584 | inactive
GstZ2 | DRSC16479 | inactive
NaPi-III | DRSC10893 | inactive
NaPi-III | DRSC10894 | inactive
NaPi-III | DRSC22953 | inactive
HDAC3 | DRSC12352 | inactive
dpr8 | DRSC19406 | inactive
dpr8 | DRSC19600 | inactive
dpr8 | DRSC19938 | inactive
dpr8 | DRSC19939 | inactive
CG1785 | DRSC18139 | inactive
Bx42 | DRSC17743 | inactive
obst-F | DRSC10805 | inactive
Lcp4 | DRSC07458 | inactive
CG7953 | DRSC01902 | inactive
Ilp1 | DRSC10174 | inactive
Karybeta3 | DRSC12355 | inactive
Vha100-2 | DRSC14152 | inactive
wash | DRSC06302 | inactive
CG8746 | DRSC07257 | inactive
rod | DRSC17047 | inactive
CG18269 | DRSC02660 | inactive
trk | DRSC03625 | inactive
Panx | DRSC04563 | inactive
fng | DRSC11455 | inactive
fng | DRSC11887 | inactive
fng | DRSC21935 | inactive
krimp | DRSC06578 | inactive
TwdlV | DRSC12226 | inactive
mRpL33 | DRSC18319 | inactive
COX4L | DRSC04841 | inactive
Obp83ef | DRSC12268 | inactive
Rbbp5 + CG6434 (retired record) | DRSC10635 | inactive
l(3)L1231 | DRSC16323 | inactive
Drak | DRSC19778 | inactive
CG17122 | DRSC10245 | inactive
TwdlL | DRSC16042 | inactive
Polr1B | DRSC00780 | inactive
CCKLR-17D3 | DRSC20015 | inactive
CCKLR-17D3 | DRSC20017 | inactive
CG30053 | DRSC07260 | inactive
CG15745 (retired record) | DRSC19711 | inactive
CG1441 | DRSC06448 | inactive
CG10465 | DRSC04848 | inactive
CG14659 | DRSC12245 | inactive
Kdm2 | DRSC14286 | inactive
Ppm1 | DRSC08260 | inactive
Tsp | DRSC02144 | inactive
Tsp | DRSC02145 | inactive
cact | DRSC03501 | inactive
CG31769 | DRSC01361 | inactive
Spn | DRSC07986 | inactive
Spn | DRSC08490 | inactive
Spn | DRSC08491 | inactive
CG10366 | DRSC02046 | inactive
Rab10 | DRSC20572 | inactive
CG2201 | DRSC03721 | inactive
Lcp65Aa | DRSC11209 | inactive
Vha13 | DRSC16895 | inactive
CG30159 | DRSC04981 | inactive
Cad88C | DRSC15486 | inactive
Cyp1 | DRSC20234 | inactive
ast | DRSC00803 | inactive
